Data: patent US20140220036A1, “METHODS FOR TREATING NEURODEGENERATIVE DISEASES AND FOR IDENTIFYING AGENTS USEFUL FOR TREATING NEURODEGENERATIVE DISEASES” (priority 2013, published 2014)
At least one compound was matched to its structure with a doubt left.

Test system: h-tau42-dependent transmitter block
Assay: Oral administration of agents to squid, then presynaptic h-tau42 injection and recording of synaptic transmission
Format: in vivo, squid (Loligo paelli)
Settings: systemic administration of agent
Procedure: Squid received an oral dose of each agent effective for such inhibiting phosphorylation of the tau protein. At 24 hours after the first dose a second dose was given, and the electrophysiological experiments were performed 1 hour after the second feeding. It was determine that after 24 hours of the double administration, an effective concentration of each agent effective for such inhibiting phosphorylation of the tau protein was measured in the CNS of the gastrically intubated squid (n=10 squid). Synapses from the treated squid were microinjected at the presynaptic axon with h-tau42 (an approximate 80 nM final concentration h-tau42 (n=19), considering a 100× dilution factor. Pre- and post-synaptic potentials were recorded for 90 min.
The squid (Loligo paelli) stellate ganglia isolation from the mantle and the electrophysiological techniques used have been described previously (Llinás, et al., Proc. Natl. Acad. Sci. U.S.A. 1985; 82: 3035-3039). […] One of the pre-electrodes was used for pressure microinjection of h-tau42 and also supported voltage clamp current feedback, while the second monitored membrane potential. […] The exact location of injection and the diffusion and steady-state distribution of the protein/fluorescent dye mix (0.001% dextran fluorescein) were monitored using a fluorescence microscope attached to a Hamamatsu camera system (Middlesex, N.J.). […]

SMILES: CO[C@H]1C[C@@H]2CC[C@@H](C)[C@@](O)(O2)C(=O)C(=O)N2CCCC[C@H]2C(=O)O[C@H]([C@H](C)C[C@@H]2CC[C@@H](O)[C@H](OC)C2)CC(=O)[C@H](C)/C=C(\C)[C@@H](O)[C@@H](OC)C(=O)[C@H](C)C[C@H](C)/C=C/C=C/C=C/1C [Rapamycin]
- h-tau42 induced functional and biochemical abnormalities in the presynaptic axon: prevented or ameliorated
